Percent effect of library compounds

A: 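Whole-cell growth test on Mycobacterium tuberculosis, read after 4 days in a medium based on cholesterol and the lipid DPPC; the read-out is not stated. Tested at 50 µM. Higher reads as more growth inhibition (inferred: compounds with an IC50 in retests scored well above the rest). About 69,000 compounds were tested under these conditions; 0.54% (about 370) showed 50% or more at least once.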
B: 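Whole-cell growth test on Mycobacterium tuberculosis, read after 3 days in glucose-containing 7H9 medium; the read-out is not stated. Concentration: 50 µM. Direction is inferred from retests: higher values go with more growth inhibition. Of about 69,000 compounds tested this way, about 760 (1.1%) reached 50% or more in at least one test.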

Results are given as percent effect. The record does not define 0% and 100%; most values in the screen are far below 50% and negative numbers occur (in some assays of this library far below -100). The compounds are a random part of those screened. Two or more numbers in one place are separate tests of the same structure; such repeats can differ widely.

| Compound | A | B |
|---|---|---|
| `Cc1ccc(C(=O)N2CCC(n3cc(CN)nn3)CC2)cc1F` | 1.528% | 32.95% |
| `CS(=O)(=O)N1CCc2[nH]cnc2C12CCN(C1CCOCC1)CC2` | -1.249% | -15.59% |
| `Oc1nc(N2CCCC2)nc2c1CCN(Cc1cccnc1)CC2` | 11.04% | 25.33% |
| `Cc1cc(-c2cc(-c3cc(CC(=O)O)cs3)nc(N)c2C#N)oc1C` | 0.9087% | -54.02% |
| `CCc1nc(C2CCCN(C(=O)c3ccc(O)nc3)C2)no1` (centres unmarked) | -9.209% | 34.32% |
| `COc1cc(OC)cc(N2CCC(NCc3occc3C)C2=O)c1` (centres unmarked) | 11.65% & 20.53% | -13.38% |
| `O=C(O)C(F)(F)F.[H][C@@]12CCN(c3ncccn3)[C@]1([H])CC[C@H](C(=O)NCc1cccs1)O2` | 6.685% & -2.182% | -20.72% |
| `COC(=O)c1cc(C2CC2)nc2c(C#N)cnn12` | -9.78% | 1.37% |
| `Cc1cc(C)n(CCN2CCN(C(=O)c3cc4ccccc4o3)CC2)n1` | 10.63% | 11.76% & 23.21% |
| `CCn1nc2c(cc1=O)CN(Cc1nc(-c3ccco3)no1)CC2` | 3.82% | 1.348% |
| `Cn1nccc1-c1cncc(C2CCCN(S(C)(=O)=O)C2)n1` (centres unmarked) | -13.88% & -7.007% | -15.24% |
| `CCNC(=O)[C@@H]1C[C@H](NC(=O)Cn2ccnc2)CN1Cc1ccsc1` | -66.62% | -40.13% |
| `CSc1nc2ccsc2c(=O)n1CC(=O)N(C)c1ccccc1` | 8.496% | 11.6% |
| `CCS(=O)(=O)N1CCC2(CC1)CC(COC)N(c1ncccn1)C2.O=C(O)C(F)(F)F` (centres unmarked) | -43.57% | -20.61% & -2.716% |
| `COc1ccc(C)cc1CC(=O)NS(=O)(=O)c1ccc(C(N)=O)cc1` | -5.167% | 5.545% |
| `Cc1ccc(NC2CCN(C(=O)c3ccsc3)CC2)nn1` | -5.814% | 1.892% |
| `COc1cc(F)ccc1-c1cnc(N)cn1` | 7.16% | 7.962% & -7.232% |
| `CCN(Cc1ccc2c(c1)OCO2)C(=O)CCc1c(C)nc(C)[nH]c1=O` | -6.452% | -30.94% |
| `Cc1nnc(CN2CCCC2c2ccc3c(c2)OCCCO3)n1C` (centres unmarked) | 9.242% & 4.991% | 38.62% |
| `O=C1C(NCc2nnc3n2CCCC3)CCN1c1ccccc1Cl` (centres unmarked) | 4.81% | -3.312% |
| `CCOC(=O)[C@H]1[C@@H](O)C(=O)N(C)C12CCN(S(=O)(=O)CC)CC2` | -17.97% | -18.73% |
| `[H][C@@]12CCN(C(=O)C(C)C)CC[C@]1(C(=O)Nc1ccccc1)CCN2C` | -1.14% | 18.32% |
| `CCc1ncnc(N(C)CC2CCCCO2)c1F` (centres unmarked) | 2.727% | 0.7635% |
| `c1ccc(Cc2nnc(CN3CCCC3Cn3cccn3)o2)cc1` (centres unmarked) | -5.796% | 7.465% & -3.371% |
| `[H][C@@]12COC[C@]1(COC)CN(S(=O)(=O)c1cccnc1)C2` | 9.334% | 1.838% & -0.1795% |
| `Cc1nccn1-c1ccc(C(C)NCc2cccn2C)cc1` (centres unmarked) | 6.059% | -1.463% & -17.13% |
| `[H][C@]12CCN(C(=O)Nc3ccccc3C)CC[C@@]1([H])S(=O)(=O)N(CC(C)C)C2` | -8.512% | -12.56% |
| `CCN(C(C)=O)c1nc(CN2CCCCC2Cn2cncn2)cs1` (centres unmarked) | -1.091% | 18.1% |
| `CS(=O)(=O)N1CCN(C(=O)CCn2cccn2)CC1` | -2.424% | -10.4% |
| `CCc1ccc(CNC2(c3ccc(F)cc3)CCOCC2)o1` | 8.059% | 2.731% |
| `NC(=O)Cn1c(SCc2noc(-c3ccsc3)n2)nnc1C1CC1` | -13.27% | 8.609% & -2.494% |
| `O=C(O)C(F)(F)F.[H][C@@]12CN(Cc3cccs3)C[C@]1([H])C(=O)N(c1cncnc1)C2` | -28.91% | -6.401% |
| `CCC1=NC2(CCC(C(=O)Nc3ccc(F)cc3)CC2)C(=O)N1C` (centres unmarked) | 5.594% | 23.58% |
| `CC(C)(C)c1ncc(C(=O)NCCNC(=O)c2ccc(O)cc2)s1` | 5.69% | -0.7065% |
| `CC(C)Oc1cccc(F)c1C(C(=O)O)N(C)Cc1ccon1` (centres unmarked) | -15.67% | -7.035% & -3.522% |
| `Cc1nn(C)c2c(N3CCCC3)nc(C3CC3)nc12` | -3.511% | 6.418% & -20.21% |
| `c1cc2c(cc1Cn1cc(C3CCOC3)nn1)CCCO2` (centres unmarked) | 23.02% | 5.925% & 22.92% |
| `COc1cc(C)cc(C(C(=O)O)N(C)Cc2ccon2)c1OC` (centres unmarked) | -5.84% & 12.88% | 20.78% |
| `Cn1nccc1-c1cccc(CC2CCN(S(C)(=O)=O)C2)n1` (centres unmarked) | -4.077% & 1.832% | -8.13% |
| `O=C(O)C(F)(F)F.O=C(O)C(F)(F)F.[H][C@@]12C[C@@H](OCc3ccccn3)CN1CCN(c1ncc(C)cn1)C2` | 3.5% | -5.319% & -19.29% |

The last 4 entries again:

* c1cc2c(cc1Cn1cc(C3CCOC3)nn1)CCCO2 (centres unmarked) | A: 23.02%; B: 5.925% & 22.92%
* COc1cc(C)cc(C(C(=O)O)N(C)Cc2ccon2)c1OC (centres unmarked) | A: -5.84% & 12.88%; B: 20.78%
* Cn1nccc1-c1cccc(CC2CCN(S(C)(=O)=O)C2)n1 (centres unmarked) | A: -4.077% & 1.832%; B: -8.13%
* O=C(O)C(F)(F)F.O=C(O)C(F)(F)F.[H][C@@]12C[C@@H](OCc3ccccn3)CN1CCN(c1ncc(C)cn1)C2 | A: 3.5%; B: -5.319% & -19.29%

Measurements from “University of Dundee, Small-Polar-MMV Screening Library” (2021), ChEMBL document CHEMBL3988442.